Results taken from patent US20020143164A1, “Ras activator nucleic acid molecules, polypeptides and methods of use” (priority 1999, published 2002).
These are yes or no findings as the source states them, for the method shown. In cells and extracts the contact can be indirect. Some binding calls cover weakened binding; strength is not graded here. Tags and fused reporters may be left off the sequences shown. Each block holds one binder with its values, some of them ahead of it.

Amino acid sequences for entries named in this document (tags omitted). A change or cut given only in a name is not applied to a line headed by its entry. Chains listed by the source or under a name are the forms on record and can include a tag or linker.
Nedd4, endogenously expressed in Hek 293T cells (human (endogenous in HEK-293T cells)) (P46934, form named): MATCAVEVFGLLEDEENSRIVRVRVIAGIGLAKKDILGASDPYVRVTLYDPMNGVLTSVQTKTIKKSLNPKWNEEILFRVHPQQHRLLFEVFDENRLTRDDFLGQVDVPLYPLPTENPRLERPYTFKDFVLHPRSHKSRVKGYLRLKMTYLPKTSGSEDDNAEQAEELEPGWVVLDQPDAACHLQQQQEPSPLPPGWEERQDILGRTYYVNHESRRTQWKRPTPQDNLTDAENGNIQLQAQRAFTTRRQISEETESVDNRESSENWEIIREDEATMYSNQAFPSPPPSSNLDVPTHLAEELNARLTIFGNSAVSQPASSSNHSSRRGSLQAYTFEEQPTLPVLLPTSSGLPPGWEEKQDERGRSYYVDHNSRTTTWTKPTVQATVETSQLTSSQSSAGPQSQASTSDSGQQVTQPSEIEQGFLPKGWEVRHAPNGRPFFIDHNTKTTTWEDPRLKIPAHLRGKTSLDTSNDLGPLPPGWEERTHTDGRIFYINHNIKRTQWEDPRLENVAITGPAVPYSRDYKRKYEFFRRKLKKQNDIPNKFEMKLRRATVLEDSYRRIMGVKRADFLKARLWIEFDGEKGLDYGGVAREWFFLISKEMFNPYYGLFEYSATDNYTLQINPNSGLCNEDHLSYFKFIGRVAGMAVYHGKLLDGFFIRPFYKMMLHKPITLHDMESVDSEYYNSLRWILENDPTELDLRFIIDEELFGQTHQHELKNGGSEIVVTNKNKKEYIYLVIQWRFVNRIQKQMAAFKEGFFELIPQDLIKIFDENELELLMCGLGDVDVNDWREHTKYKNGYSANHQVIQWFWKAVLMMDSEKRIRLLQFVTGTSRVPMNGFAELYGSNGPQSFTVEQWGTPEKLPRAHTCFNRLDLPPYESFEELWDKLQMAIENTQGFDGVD

Key:
[1] = target: T1, Flag-tagged full-length GRF4 (human) (UniProt Q9Y4G8); assay: pull-down with GST-PDZ beads
T1 sequence: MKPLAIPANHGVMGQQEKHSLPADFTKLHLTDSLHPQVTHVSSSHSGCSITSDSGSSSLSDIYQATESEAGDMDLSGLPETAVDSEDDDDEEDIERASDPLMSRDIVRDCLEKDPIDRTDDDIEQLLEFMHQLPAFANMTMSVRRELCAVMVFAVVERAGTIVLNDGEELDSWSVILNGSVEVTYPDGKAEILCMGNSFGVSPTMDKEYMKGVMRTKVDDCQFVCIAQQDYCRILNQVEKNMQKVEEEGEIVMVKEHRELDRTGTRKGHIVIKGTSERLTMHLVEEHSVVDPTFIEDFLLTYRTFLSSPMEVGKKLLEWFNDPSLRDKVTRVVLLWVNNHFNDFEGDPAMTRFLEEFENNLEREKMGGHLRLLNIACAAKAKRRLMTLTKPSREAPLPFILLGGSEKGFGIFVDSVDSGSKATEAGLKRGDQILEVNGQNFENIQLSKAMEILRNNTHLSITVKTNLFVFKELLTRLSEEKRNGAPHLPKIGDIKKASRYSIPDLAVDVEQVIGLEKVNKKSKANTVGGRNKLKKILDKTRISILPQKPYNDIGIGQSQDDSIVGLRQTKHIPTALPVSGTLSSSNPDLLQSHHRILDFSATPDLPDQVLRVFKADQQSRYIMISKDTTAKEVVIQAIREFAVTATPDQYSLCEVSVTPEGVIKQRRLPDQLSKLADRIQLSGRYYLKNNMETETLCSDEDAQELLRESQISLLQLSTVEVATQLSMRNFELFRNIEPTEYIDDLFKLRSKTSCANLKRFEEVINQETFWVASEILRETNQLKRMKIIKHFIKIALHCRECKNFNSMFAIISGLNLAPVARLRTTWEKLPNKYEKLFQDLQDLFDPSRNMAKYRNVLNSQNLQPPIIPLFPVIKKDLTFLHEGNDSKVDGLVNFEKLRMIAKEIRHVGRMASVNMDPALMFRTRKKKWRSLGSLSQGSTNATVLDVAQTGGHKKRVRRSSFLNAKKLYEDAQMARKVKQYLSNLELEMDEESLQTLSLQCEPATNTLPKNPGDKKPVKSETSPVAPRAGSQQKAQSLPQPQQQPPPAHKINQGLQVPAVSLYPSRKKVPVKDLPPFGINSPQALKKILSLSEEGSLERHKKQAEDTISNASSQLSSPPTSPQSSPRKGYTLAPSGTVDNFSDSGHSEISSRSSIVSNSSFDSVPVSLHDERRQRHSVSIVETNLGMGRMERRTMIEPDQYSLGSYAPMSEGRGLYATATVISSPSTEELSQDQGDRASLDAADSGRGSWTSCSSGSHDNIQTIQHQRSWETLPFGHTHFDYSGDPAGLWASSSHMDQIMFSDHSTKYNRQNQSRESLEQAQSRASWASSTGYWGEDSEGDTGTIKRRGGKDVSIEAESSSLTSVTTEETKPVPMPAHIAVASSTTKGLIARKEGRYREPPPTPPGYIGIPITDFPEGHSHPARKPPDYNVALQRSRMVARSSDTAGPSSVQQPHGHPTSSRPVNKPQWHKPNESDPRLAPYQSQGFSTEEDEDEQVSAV

[2] = target: T1, Flag-tagged full-length GRF4 (human); assay: summary of results (pull-down)
[3] = target: T1, Flag-tagged full-length GRF4 (human); assay: pull-down of Flag-tagged GRF4 from 293T lysates with GST-PDZ beads; anti-Flag immunoblot
[4] = target: Nedd4, endogenously expressed in Hek 293T cells (human (endogenous in HEK-293T cells)) (UniProt P46934); assay: co-immunoprecipitation from transfected Hek 293T cells
[5] = target: Nedd4, endogenously expressed in Hek 293T cells (human (endogenous in HEK-293T cells)) (UniProt P46934); assay: summary of results (pull-down and co-immunoprecipitation)
[6] = target: Nedd4, endogenously expressed in Hek 293T cells (human (endogenous in HEK-293T cells)) (UniProt P46934); assay: co-immunoprecipitation with anti-Flag affinity gel from transfected Hek 293T cells; Nedd4 immunoblot
[7] = target: Nedd4, endogenously expressed in Hek 293T cells (human (endogenous in HEK-293T cells)) (UniProt P46934); assay: GST pull-down from 293T lysates; Nedd4 immunoblot

binding [1]: binds
binding [2]: binds
binding [3]: binds
B1: GST-fusion protein of GRF4-PDZ domain (GST-PDZ) (protein, not shown: a dimerising Fc or GST)
chain: MTLTKPSREAPLPFILLGGSEKGFGIFVDSVDSGSKATEAGLKRGDQILEVNGQNFENIQLSKAMEILRNNTHLSITVKTNLFVF

binding [4]: binds
binding [5]: binds
binding [6]: binds
B2: Flag-tagged full-length GRF4 (enzyme, not shown: small tags and cut ends)
chain: MKPLAIPANHGVMGQQEKHSLPADFTKLHLTDSLHPQVTHVSSSHSGCSITSDSGSSSLSDIYQATESEAGDMDLSGLPETAVDSEDDDDEEDIERASDPLMSRDIVRDCLEKDPIDRTDDDIEQLLEFMHQLPAFANMTMSVRRELCAVMVFAVVERAGTIVLNDGEELDSWSVILNGSVEVTYPDGKAEILCMGNSFGVSPTMDKEYMKGVMRTKVDDCQFVCIAQQDYCRILNQVEKNMQKVEEEGEIVMVKEHRELDRTGTRKGHIVIKGTSERLTMHLVEEHSVVDPTFIEDFLLTYRTFLSSPMEVGKKLLEWFNDPSLRDKVTRVVLLWVNNHFNDFEGDPAMTRFLEEFENNLEREKMGGHLRLLNIACAAKAKRRLMTLTKPSREAPLPFILLGGSEKGFGIFVDSVDSGSKATEAGLKRGDQILEVNGQNFENIQLSKAMEILRNNTHLSITVKTNLFVFKELLTRLSEEKRNGAPHLPKIGDIKKASRYSIPDLAVDVEQVIGLEKVNKKSKANTVGGRNKLKKILDKTRISILPQKPYNDIGIGQSQDDSIVGLRQTKHIPTALPVSGTLSSSNPDLLQSHHRILDFSATPDLPDQVLRVFKADQQSRYIMISKDTTAKEVVIQAIREFAVTATPDQYSLCEVSVTPEGVIKQRRLPDQLSKLADRIQLSGRYYLKNNMETETLCSDEDAQELLRESQISLLQLSTVEVATQLSMRNFELFRNIEPTEYIDDLFKLRSKTSCANLKRFEEVINQETFWVASEILRETNQLKRMKIIKHFIKIALHCRECKNFNSMFAIISGLNLAPVARLRTTWEKLPNKYEKLFQDLQDLFDPSRNMAKYRNVLNSQNLQPPIIPLFPVIKKDLTFLHEGNDSKVDGLVNFEKLRMIAKEIRHVGRMASVNMDPALMFRTRKKKWRSLGSLSQGSTNATVLDVAQTGGHKKRVRRSSFLNAKKLYEDAQMARKVKQYLSNLELEMDEESLQTLSLQCEPATNTLPKNPGDKKPVKSETSPVAPRAGSQQKAQSLPQPQQQPPPAHKINQGLQVPAVSLYPSRKKVPVKDLPPFGINSPQALKKILSLSEEGSLERHKKQAEDTISNASSQLSSPPTSPQSSPRKGYTLAPSGTVDNFSDSGHSEISSRSSIVSNSSFDSVPVSLHDERRQRHSVSIVETNLGMGRMERRTMIEPDQYSLGSYAPMSEGRGLYATATVISSPSTEELSQDQGDRASLDAADSGRGSWTSCSSGSHDNIQTIQHQRSWETLPFGHTHFDYSGDPAGLWASSSHMDQIMFSDHSTKYNRQNQSRESLEQAQSRASWASSTGYWGEDSEGDTGTIKRRGGKDVSIEAESSSLTSVTTEETKPVPMPAHIAVASSTTKGLIARKEGRYREPPPTPPGYIGIPITDFPEGHSHPARKPPDYNVALQRSRMVARSSDTAGPSSVQQPHGHPTSSRPVNKPQWHKPNESDPRLAPYQSQGFSTEEDEDEQVSAV

binding [7]: binds
B3: GST-fusion protein of the C-terminal last 150 amino acids of GRF4, containing the two PY motifs (protein, not shown: a dimerising Fc or GST)
chain: GGKDVSIEAESSSLTSVTTEETKPVPMPAHIAVASSTTKGLIARKEGRYREPPPTPPGYIGIPITDFPEGHSHPARKPPDYNVALQRSRMVARSSDTAGPSSVQQPHGHPTSSRPVNKPQWHKPNESDPRLAPYQSQGFSTEEDEDEQVSAV
